# Measured values from PubChem BioAssay (EPA / NIEHS).
# By UniProt entry, the sequences of proteins in these tests, tags left out.
# UniProt P03372, whole entry, looked up: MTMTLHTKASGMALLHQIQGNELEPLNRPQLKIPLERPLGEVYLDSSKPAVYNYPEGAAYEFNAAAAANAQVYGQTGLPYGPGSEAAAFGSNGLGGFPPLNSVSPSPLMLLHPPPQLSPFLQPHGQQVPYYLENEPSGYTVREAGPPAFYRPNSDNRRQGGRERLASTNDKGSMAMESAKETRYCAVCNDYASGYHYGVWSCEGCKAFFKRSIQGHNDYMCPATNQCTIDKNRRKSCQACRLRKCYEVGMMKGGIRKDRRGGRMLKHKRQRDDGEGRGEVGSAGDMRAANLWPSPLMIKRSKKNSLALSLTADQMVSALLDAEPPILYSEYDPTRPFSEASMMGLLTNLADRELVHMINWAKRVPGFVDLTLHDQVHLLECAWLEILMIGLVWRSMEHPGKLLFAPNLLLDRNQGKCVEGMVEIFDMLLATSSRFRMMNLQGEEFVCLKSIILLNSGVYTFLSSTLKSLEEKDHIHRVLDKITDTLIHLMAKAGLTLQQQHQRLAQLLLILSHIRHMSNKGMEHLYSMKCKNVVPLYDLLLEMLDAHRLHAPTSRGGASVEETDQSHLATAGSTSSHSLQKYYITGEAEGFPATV
# UniProt P19785, whole entry, looked up: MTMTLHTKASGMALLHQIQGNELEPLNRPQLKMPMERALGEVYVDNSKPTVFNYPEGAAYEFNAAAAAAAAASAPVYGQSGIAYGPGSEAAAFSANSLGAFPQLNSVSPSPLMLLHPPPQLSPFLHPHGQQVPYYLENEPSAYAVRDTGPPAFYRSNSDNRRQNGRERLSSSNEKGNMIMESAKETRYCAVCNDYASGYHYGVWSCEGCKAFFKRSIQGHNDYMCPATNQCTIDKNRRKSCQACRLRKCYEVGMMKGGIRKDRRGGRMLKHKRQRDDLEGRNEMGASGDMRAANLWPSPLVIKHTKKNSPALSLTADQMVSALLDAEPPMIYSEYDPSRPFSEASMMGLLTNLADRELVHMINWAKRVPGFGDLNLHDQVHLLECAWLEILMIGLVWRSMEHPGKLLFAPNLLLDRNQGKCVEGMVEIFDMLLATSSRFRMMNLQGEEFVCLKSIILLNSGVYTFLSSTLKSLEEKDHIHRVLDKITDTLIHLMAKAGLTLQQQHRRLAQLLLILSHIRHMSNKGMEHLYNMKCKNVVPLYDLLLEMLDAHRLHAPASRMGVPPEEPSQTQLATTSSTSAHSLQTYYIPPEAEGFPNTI
# UniProt P04637, whole entry, looked up: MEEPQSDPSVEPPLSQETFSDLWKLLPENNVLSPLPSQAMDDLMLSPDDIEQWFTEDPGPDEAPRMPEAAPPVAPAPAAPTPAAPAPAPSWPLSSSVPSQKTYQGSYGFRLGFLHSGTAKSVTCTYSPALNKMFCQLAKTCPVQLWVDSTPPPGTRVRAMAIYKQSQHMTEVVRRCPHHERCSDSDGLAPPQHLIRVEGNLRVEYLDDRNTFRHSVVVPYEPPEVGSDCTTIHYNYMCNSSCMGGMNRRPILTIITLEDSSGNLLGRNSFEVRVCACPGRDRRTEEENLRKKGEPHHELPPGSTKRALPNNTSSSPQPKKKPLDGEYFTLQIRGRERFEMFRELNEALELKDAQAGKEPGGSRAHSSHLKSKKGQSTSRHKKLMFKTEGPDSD
# Inconclusive means that the source gave no clear call. Such entries were picked first, then a sample of the others. For part of these data: Potencies of inconclusive entries are doubtful fits and often do not repeat. Activity calls are given as the source filed them. The calls were made as follows: active = hit-call score of the fitted dose curve at least 0.9, where 1 is the maximum; inconclusive = response in the unintended direction; inactive = score below 0.9.
# What was measured:
# [1] = target: Estrogen receptor (Homo sapiens) (UniProt P03372); assay: NVS_NR_hER: NovaScreen (NVS) Nuclear Receptor Binding Assay for human Estrogen Receptor (ER) (AID 2283348)
# Procedure, shortened: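 Scintillation signal from bound radioligand was measured 18 hours after chemical addition to cell-free MCF7 protein extracts, with DMSO as baseline. Activity was scored as signal loss; compounds ran first at 25 uM in duplicate.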
# [2] = target: mouse Estrogen Receptor alpha (Era), Esr1 (gene 13982) (UniProt P19785); assay: NVS_NR_mERa: NovaScreen (NVS) Nuclear Receptor Binding Assay for mouse Estrogen Receptor alpha (Era) (AID 2283378);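 also: hit means loss of bound radioligand signal relative to DMSO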
# Procedure, shortened: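 Test chemicals competed against a specific radioligand for binding to cell-free mouse Era. Duplicate wells at 25 uM were read 18 hours later by filter-based radiodetection, with loss of signal against DMSO scored as activity.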
# [3] = TOX21_p53_BLA_p2_viability: Viability Assessment in the Tox21 HCT-116 p53 Agonism Beta-lactamase Assay, Phase 2 (AID 2283591);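 also: actives lower the ATP signal meaning cytotoxicity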
# Procedure, shortened: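 Cytotoxicity readout: CellTiter-Glo ATP luminescence, 30 min at room temperature, after the beta-lactamase read. Cells were HCT116 exposed 16 h at 37C to compounds pin-transferred at 217-fold dilution from DMSO stocks.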
# [4] = target: Cellular tumor antigen p53 (Homo sapiens) (UniProt P04637); assay: TOX21_p53_BLA_p5_ratio: Tox21 HCT-116 p53 Agonism Beta-lactamase Assay, Ratio, Phase 5 (AID 2283599)
# Procedure, shortened: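 Beta-lactamase reporter ratio (blue 460 nm over green 530 nm, 405 nm excitation) after 2 h CCF4-AM loading, in HCT-116 cells exposed 16 h at 37 C to compounds pinned at 217-fold dilution. Increases relative to DMSO baseline scored.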
# [5] = TOX21_p53_BLA_p5_viability: Viability Assessment in the Tox21 HCT-116 p53 Agonism Beta-lactamase Assay, Phase 5 (AID 2283600)
# Procedure, shortened: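 Counter-readout for cytotoxicity: ATP-dependent luminescence from CellTiter-Glo, read in the beta-lactamase wells after 30 min at RT, following a 16 h compound exposure at 37C.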
# [6] = target: Cellular tumor antigen p53 (Homo sapiens) (UniProt P04637); assay: TOX21_p53_BLA_p4_ratio: Tox21 HCT-116 p53 Agonism Beta-lactamase Assay, Ratio, Phase 4 (AID 2283601)
# Procedure, shortened: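 Signal is the blue/green (460nm/530nm) ratio of cleaved versus uncleaved CCF4-AM substrate, read after 2 h substrate loading. Cells were HCT116 carrying the p53-responsive beta-lactamase reporter, dosed 16 h at 37C, 5% CO2; CellTiter-Glo measured in parallel.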
structure (smiles),measurement,setting,value
CCCCCCCCCCCCSC#N,outcome,[1],inactive
same,AC50,[2],active: 6.16 µM
same,AC50,[3],inconclusive: 46.1 µM
same,AC50,[4],inconclusive: 46.1 µM
same,AC50,[5],inconclusive: 46.1 µM
same,AC50,[6],inconclusive: 46.1 µM
